# The supplement of paper PMC10849652
# Chains of the proteins cited; added tags and fusions are not shown. Lines headed by an entry give the natural chain unless they say otherwise; changes in a name come on top.
# UniProt Q7Z5U6: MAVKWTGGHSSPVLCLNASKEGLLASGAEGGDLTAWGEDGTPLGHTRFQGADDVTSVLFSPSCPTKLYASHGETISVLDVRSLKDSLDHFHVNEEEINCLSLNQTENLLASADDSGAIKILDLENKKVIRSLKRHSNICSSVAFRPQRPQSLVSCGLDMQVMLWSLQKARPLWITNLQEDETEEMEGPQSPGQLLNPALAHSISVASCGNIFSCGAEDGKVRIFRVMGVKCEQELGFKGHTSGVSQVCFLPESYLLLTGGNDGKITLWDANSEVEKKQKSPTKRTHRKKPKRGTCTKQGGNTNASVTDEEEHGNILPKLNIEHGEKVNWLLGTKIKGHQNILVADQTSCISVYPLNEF
# UniProt Q9Y6W5, whole entry, looked up: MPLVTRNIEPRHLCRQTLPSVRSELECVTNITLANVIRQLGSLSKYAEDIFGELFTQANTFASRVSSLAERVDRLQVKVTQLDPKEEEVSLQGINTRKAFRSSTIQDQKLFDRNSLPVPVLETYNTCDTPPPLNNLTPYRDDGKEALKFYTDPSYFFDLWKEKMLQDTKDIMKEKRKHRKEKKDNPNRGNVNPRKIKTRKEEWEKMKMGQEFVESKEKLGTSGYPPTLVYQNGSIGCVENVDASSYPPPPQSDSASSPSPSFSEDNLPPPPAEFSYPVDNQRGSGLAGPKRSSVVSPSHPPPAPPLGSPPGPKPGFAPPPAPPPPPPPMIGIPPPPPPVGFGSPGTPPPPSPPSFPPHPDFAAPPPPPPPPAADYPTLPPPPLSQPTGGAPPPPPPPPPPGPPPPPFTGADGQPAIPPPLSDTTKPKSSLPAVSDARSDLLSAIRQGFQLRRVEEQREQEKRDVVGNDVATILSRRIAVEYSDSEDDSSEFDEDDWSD
# UniProt Q8NEZ2: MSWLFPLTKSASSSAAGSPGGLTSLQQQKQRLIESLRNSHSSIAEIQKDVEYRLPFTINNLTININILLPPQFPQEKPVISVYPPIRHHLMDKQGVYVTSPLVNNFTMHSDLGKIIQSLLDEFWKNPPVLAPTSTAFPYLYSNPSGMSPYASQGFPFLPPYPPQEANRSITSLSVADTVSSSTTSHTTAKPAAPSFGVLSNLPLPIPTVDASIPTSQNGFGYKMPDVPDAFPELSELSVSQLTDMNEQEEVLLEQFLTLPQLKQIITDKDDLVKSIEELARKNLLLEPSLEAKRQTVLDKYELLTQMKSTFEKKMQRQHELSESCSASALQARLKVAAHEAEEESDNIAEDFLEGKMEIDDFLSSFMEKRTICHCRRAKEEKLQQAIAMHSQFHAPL
# UniProt P51811: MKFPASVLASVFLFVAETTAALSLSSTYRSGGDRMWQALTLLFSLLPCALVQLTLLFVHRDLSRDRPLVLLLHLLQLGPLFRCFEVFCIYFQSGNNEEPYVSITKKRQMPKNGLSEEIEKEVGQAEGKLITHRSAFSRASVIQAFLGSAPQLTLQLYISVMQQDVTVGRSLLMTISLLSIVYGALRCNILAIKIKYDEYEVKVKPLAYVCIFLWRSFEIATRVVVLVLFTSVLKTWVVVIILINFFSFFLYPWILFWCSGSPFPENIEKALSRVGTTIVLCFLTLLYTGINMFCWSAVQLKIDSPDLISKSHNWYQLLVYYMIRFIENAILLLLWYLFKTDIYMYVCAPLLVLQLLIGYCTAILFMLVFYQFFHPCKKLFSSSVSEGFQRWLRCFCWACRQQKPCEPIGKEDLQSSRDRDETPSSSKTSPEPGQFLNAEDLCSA
# UniProt P42768: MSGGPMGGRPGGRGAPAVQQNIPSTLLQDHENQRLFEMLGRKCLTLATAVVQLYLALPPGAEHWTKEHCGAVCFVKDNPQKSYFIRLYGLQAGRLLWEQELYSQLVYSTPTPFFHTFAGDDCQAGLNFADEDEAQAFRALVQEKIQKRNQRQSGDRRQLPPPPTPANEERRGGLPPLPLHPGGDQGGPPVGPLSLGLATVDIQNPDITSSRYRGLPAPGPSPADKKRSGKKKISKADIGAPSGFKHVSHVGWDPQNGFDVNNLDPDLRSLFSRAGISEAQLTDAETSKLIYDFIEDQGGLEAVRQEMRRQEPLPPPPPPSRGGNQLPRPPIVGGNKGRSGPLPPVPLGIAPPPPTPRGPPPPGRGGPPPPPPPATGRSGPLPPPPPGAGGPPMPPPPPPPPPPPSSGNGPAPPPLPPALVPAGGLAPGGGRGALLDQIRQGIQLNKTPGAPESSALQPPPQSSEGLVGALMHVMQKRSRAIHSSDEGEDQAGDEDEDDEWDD
# UniProt Q8NEZ3: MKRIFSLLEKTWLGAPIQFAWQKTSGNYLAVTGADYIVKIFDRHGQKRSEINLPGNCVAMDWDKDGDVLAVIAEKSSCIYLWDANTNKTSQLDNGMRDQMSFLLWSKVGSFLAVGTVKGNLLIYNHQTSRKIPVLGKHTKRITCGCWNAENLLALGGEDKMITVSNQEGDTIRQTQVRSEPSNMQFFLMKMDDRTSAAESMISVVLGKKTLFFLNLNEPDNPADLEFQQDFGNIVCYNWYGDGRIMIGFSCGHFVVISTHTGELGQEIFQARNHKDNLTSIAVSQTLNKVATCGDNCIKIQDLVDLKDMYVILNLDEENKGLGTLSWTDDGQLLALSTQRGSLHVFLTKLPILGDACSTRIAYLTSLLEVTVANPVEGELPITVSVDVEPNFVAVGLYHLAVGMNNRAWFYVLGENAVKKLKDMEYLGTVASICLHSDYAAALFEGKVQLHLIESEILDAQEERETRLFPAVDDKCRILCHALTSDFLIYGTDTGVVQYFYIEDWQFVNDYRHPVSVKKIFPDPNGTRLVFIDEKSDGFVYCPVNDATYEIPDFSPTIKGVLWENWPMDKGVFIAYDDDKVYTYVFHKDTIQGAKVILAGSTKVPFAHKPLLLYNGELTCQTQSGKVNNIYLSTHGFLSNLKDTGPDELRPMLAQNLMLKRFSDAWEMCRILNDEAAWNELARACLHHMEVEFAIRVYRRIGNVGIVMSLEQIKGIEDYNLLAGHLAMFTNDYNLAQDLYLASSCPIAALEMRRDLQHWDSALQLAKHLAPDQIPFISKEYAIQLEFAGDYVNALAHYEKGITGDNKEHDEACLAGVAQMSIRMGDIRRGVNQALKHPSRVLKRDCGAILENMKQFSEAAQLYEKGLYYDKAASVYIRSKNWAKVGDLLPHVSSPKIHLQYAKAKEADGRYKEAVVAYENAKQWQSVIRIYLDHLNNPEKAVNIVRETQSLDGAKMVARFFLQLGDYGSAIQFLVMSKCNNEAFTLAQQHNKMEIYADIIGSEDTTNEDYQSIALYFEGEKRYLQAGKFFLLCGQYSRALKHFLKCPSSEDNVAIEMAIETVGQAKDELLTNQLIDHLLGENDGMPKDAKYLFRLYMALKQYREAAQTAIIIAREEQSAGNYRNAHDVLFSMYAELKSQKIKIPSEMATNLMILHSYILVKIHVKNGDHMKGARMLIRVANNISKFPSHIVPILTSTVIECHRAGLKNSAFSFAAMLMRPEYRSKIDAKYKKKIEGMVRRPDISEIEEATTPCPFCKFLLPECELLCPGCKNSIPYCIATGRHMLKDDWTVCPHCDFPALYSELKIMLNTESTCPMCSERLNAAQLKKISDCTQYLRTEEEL
# UniProt Q9BTA9: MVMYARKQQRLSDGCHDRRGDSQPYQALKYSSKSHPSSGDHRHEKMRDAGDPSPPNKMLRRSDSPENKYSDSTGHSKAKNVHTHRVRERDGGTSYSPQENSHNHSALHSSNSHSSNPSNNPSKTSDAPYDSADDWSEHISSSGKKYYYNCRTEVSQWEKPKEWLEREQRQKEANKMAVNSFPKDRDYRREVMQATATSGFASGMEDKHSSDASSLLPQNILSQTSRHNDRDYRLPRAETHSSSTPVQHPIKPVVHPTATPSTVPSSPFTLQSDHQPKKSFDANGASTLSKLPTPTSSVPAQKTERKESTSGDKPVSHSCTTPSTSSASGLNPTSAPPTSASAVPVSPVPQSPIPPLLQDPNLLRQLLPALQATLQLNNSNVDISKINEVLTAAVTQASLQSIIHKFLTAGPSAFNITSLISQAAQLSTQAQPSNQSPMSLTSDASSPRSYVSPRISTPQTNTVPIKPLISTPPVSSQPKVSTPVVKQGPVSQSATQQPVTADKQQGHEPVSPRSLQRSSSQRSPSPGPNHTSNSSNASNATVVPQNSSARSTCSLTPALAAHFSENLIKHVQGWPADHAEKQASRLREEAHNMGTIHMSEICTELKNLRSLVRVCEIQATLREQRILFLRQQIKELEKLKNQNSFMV
# UniProt Q15906, whole entry, looked up: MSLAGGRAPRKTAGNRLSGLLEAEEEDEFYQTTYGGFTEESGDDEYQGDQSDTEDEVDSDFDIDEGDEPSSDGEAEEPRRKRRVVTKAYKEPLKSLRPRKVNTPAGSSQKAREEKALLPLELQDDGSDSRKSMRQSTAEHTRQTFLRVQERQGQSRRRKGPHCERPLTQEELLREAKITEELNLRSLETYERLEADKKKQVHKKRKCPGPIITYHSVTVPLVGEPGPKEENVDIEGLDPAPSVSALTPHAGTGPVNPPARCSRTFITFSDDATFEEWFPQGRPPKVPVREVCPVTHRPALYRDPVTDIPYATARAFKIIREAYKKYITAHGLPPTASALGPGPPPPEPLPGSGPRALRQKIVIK
# UniProt Q9H967: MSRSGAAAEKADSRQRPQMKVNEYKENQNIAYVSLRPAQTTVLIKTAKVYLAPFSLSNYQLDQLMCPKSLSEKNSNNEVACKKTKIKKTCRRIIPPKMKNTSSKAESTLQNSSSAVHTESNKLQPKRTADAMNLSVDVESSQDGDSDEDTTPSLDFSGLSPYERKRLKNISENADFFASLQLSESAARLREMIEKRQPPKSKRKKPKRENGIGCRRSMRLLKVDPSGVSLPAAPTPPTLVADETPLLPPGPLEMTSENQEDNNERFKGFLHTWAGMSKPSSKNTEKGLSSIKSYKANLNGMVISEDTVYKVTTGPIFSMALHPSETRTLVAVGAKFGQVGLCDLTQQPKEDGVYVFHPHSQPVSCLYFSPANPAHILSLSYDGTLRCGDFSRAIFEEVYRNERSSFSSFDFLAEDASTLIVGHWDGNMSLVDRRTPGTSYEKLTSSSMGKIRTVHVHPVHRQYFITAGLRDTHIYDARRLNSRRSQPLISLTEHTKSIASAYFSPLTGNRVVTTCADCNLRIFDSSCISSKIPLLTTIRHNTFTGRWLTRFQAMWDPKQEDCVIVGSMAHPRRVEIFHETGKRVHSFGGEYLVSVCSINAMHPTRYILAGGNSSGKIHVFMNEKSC
# UniProt Q96JG6: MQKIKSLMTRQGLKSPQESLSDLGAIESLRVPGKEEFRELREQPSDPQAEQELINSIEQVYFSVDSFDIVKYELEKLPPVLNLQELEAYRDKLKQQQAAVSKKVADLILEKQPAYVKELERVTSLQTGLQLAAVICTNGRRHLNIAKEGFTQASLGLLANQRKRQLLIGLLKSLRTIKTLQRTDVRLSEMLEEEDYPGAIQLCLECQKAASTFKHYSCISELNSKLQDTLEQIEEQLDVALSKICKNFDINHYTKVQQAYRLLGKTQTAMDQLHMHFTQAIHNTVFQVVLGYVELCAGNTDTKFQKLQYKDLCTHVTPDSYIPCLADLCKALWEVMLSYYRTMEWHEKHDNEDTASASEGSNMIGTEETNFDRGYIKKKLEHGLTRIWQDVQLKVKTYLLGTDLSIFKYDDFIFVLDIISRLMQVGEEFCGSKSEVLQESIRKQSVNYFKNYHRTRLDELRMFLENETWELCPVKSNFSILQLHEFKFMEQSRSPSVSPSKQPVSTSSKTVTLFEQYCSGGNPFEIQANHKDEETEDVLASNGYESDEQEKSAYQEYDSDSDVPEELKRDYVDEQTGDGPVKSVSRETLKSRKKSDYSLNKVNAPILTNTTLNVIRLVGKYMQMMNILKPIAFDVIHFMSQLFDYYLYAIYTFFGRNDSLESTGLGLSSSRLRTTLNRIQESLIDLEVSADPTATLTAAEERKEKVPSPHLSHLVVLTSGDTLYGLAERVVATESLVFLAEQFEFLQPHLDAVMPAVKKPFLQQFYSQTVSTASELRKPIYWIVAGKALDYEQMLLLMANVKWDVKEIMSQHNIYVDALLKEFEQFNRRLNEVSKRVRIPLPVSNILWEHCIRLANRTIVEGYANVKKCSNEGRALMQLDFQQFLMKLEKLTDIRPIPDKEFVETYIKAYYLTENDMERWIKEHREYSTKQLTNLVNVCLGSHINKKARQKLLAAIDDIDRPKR
# UniProt Q5T750: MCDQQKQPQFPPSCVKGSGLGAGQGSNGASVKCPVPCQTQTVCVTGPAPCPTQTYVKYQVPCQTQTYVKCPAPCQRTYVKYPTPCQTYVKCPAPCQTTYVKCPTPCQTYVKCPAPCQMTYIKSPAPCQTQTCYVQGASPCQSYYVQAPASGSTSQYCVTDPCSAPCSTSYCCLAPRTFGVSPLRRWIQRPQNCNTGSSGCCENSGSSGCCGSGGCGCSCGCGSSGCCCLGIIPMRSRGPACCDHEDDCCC
# Some of the results follow.
# Key:
# Assay in all cases: log2 fold change, soluble protein after heating vs DMSO (PISA); higher = thermal stabilisation; K562 lysate, 10 uM; active = over 0.2 and 3.5 SD of the protein, either way, in both replicates (recomputed)
# [1] = compound: CS(=O)(=O)N1CCN(Cc2cc3nc(-c4cccc5[nH]ncc45)nc(N4CCOCC4)c3s2)CC1 [pictilisib]
# Procedure, shortened: (§1)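 Soluble protein was defined as the supernatant remaining after 21,000xg for 90 min, following pooling of heated aliquots and adjustment to 0.5% NP-40 at 4°C. Before that, crude K562 extract at 1 mg/mL protein in PBS pH 7.4 with 1 mM MgCl2 was treated with 10 μM compound for 30 min and heated for 3 min across 48°C-58°C. Quantification used TMTpro 16plex LC-MS/MS with channel sums equalised, and values are log-two fold changes in thermal stability relative to solvent controls from duplicates.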
# [2] = compound: C[C@@H](Oc1cc(-c2cnn(C3CCNCC3)c2)cnc1N)c1c(Cl)ccc(F)c1Cl [crizotinib]
# Procedure, shortened: as §1
# [3] = compound: C[C@H](C1=CC=C(C=C1)C(=O)NC2=C3C=CNC3=NC=C2)N
# Procedure, shortened: as §1
# [4] = compound: C[C@H](Nc1ncnc2nc[nH]c12)c1cc2cccc(Cl)c2c(=O)n1-c1ccccc1 [duvelisib]
# Procedure, shortened: as §1
# [5] = compound: Cc1cc(Nc2cc(CN3CCOCC3)c3nc(C)c(Cc4ccc(Cl)cc4F)n3n2)n[nH]1 [gandotinib]
# Procedure, shortened: as §1
# [6] = compound: Cc1cc(Nc2cc(N3CCN(C)CC3)nc(Sc3ccc(NC(=O)C4CC4)cc3)n2)n[nH]1 [tozasertib]
# Procedure, shortened: as §1
# [7] = compound: Cc1ccc(-n2nc(C(C)(C)C)cc2NC(=O)Nc2ccc(OCCN3CCOCC3)c3ccccc23)cc1 [doramapimod]
# Procedure, shortened: as §1
# [8] = compound: Cc1ccc(NC(=O)c2ccc(CN3CC[C@H](N(C)C)C3)c(C(F)(F)F)c2)cc1Nc1nccc(-c2cncnc2)n1 [bafetinib]
# Procedure, shortened: as §1
# [9] = compound: Cc1cccc(CC(=O)N2CCc3c2ccc(-c2cn(C)c4ncnc(N)c24)c3F)n1
# Procedure, shortened: as §1
# [10] = compound: Cc1cn(-c2cc(NC(=O)c3ccc(C)c(Nc4nccc(-c5cccnc5)n4)c3)cc(C(F)(F)F)c2)cn1 [nilotinib]
# Procedure, shortened: as §1
# [11] = compound: Cc1nc(Nc2n[nH]c3c2CN(C(=O)N[C@H](CN(C)C)c2ccccc2)C3(C)C)c2sccc2n1
# Procedure, shortened: as §1
# [12] = compound: Cc1nc(Nc2ncc(C(=O)Nc3c(C)cccc3Cl)s2)cc(N2CCN(CCO)CC2)n1 [dasatinib]
# Procedure, shortened: as §1
# [13] = compound: Cc1ncc(-c2ccnc(Nc3ccc(S(C)(=O)=O)cc3)n2)n1C(C)C
# Procedure, shortened: as §1
# [14] = compound: Cn1cc(-c2ccc3c(c2)CCN3C(=O)Cc2cccc(C(F)(F)F)c2)c2c(N)ncnc21
# Procedure, shortened: as §1
# [15] = compound: Cn1cc(CNCC2CCN(c3ncc(C(=O)NO)cn3)CC2)c2ccccc21 [quisinostat]
# Procedure, shortened: as §1
# [16] = compound: Cn1cncc1[C@@](N)(c1ccc(Cl)cc1)c1ccc2c(c1)c(-c1cccc(Cl)c1)cc(=O)n2C [tipifarnib]
# Procedure, shortened: as §1
# [17] = compound: NC(=O)Nc1cc(-c2cccc(F)c2)sc1C(=O)N[C@H]1CCCNC1
# Procedure, shortened: as §1
# [18] = compound: NC1(c2ccc(-c3nc4ccn5c(=O)[nH]nc5c4cc3-c3ccccc3)cc2)CCC1
# Procedure, shortened: as §1
# [19] = compound: CS(=O)(=O)CCNCc1ccc(-c2ccc3ncnc(Nc4ccc(OCc5cccc(F)c5)c(Cl)c4)c3c2)o1 [lapatinib]
# Procedure, shortened: as §1
# [20] = compound: NC(=O)c1cnc(N[C@@H]2CCCC[C@@H]2N)nc1Nc1cccc(-n2nccn2)c1
# Procedure, shortened: as §1
Target,log2 fold change [1],log2 fold change [2],log2 fold change [3],log2 fold change [4],log2 fold change [5],log2 fold change [6],log2 fold change [7],log2 fold change [8],log2 fold change [9],log2 fold change [10],log2 fold change [11],log2 fold change [12],log2 fold change [13],log2 fold change [14],log2 fold change [15],log2 fold change [16],log2 fold change [17],log2 fold change [18],log2 fold change [19],log2 fold change [20]
WDR53 (UniProt Q7Z5U6),inactive: -0.002,inactive: 0.032,inactive: 0.081,inactive: -0.17,inactive: -0.064,inactive: 0.022,inactive: -0.093,inactive: -0.137,inactive: 0.019,inactive: -0.158,inactive: 0.091,inactive: -0.037,inactive: 0.131,inactive: 0.075,inactive: -0.088,inactive: -0.076,inactive: 0.096,inactive: 0.037,–,–
VSIR (UniProt Q9H7M9),inactive: 0.036,inactive: 0.09,inactive: -0.069,inactive: 0.012,inactive: 0.034,inactive: -0.008,inactive: 0.033,inactive: 0.01,inactive: -0.026,–,–,inactive: -0.022,–,inactive: -0.08,inactive: 0.145,–,inactive: -0.059,inactive: 0.054,inactive: 0.004,inactive: -0.04
WASF2 (UniProt Q9Y6W5),inactive: -0.014,inactive: 0.036,inactive: -0.01,inactive: 0.013,inactive: -0.015,inactive: 0.032,inactive: -0.045,inactive: -0.015,inactive: 0.038,inactive: -0.024,inactive: 0.046,inactive: -0.019,inactive: 0.029,inactive: 0.028,inactive: 0.044,inactive: 0.007,inactive: 0.005,inactive: 0.039,inactive: -0.005,inactive: 0.012
VPS37A (UniProt Q8NEZ2),inactive: -0.085,inactive: 0.007,inactive: 0.078,inactive: 0.04,inactive: -0.099,inactive: 0.053,inactive: 0.011,inactive: 0.063,inactive: 0.011,inactive: -0.011,inactive: -0.009,inactive: -0.079,inactive: 0.001,inactive: 0.069,inactive: 0.003,inactive: -0.072,inactive: -0.001,inactive: 0.032,inactive: 0.017,inactive: 0.032
VPS29 (UniProt Q9UBQ0),–,inactive: -0.119,–,inactive: 0.057,–,–,inactive: -0.101,–,–,–,–,inactive: -0.118,–,inactive: -0.053,inactive: 0.075,–,inactive: 0.073,inactive: -0.077,inactive: -0.04,inactive: 0.163
"WDR13, A0A087X091",–,–,inactive: -0.01,–,inactive: 0.16,–,–,–,inactive: -0.072,–,–,–,–,–,–,–,–,–,–,–
XK (UniProt P51811),inactive: -0.013,–,inactive: -0.019,inactive: 0.04,inactive: -0.007,inactive: -0.096,–,inactive: -0.042,inactive: 0.043,inactive: 0.057,inactive: 0.055,inactive: 0.018,inactive: -0.149,inactive: -0.141,–,inactive: 0.075,–,inactive: -0.021,inactive: 0.008,inactive: -0.143
WAS (UniProt P42768),inactive: -0.027,–,inactive: -0.16,inactive: -0.194,inactive: -0.057,inactive: -0.127,–,inactive: -0.065,inactive: 0.103,active: 0.636,inactive: -0.102,inactive: 0.095,inactive: 0.318,inactive: 0.129,–,inactive: -0.064,–,inactive: 0.025,–,–
WARS1 (UniProt G3V277),inactive: -0.098,–,–,–,–,inactive: 0.076,–,inactive: -0.127,–,–,–,–,–,–,–,–,–,–,–,–
WDR48 (UniProt Q8TAF3),inactive: 0.023,inactive: 0.019,inactive: -0.096,inactive: 0.003,inactive: 0.059,inactive: 0,inactive: 0.009,inactive: 0.01,inactive: 0.037,inactive: -0.024,inactive: 0.038,inactive: 0.01,inactive: 0.019,inactive: 0.02,inactive: -0.039,inactive: 0.015,inactive: -0.02,inactive: -0.028,inactive: 0.046,inactive: 0.015
WARS1 (UniProt G3V456),–,–,–,–,–,–,–,–,–,–,–,–,–,–,–,–,–,–,inactive: 0.131,inactive: -0.334
WDR19 (UniProt Q8NEZ3),inactive: -0.152,inactive: -0.208,inactive: -0.131,–,inactive: 0.135,–,inactive: 0.015,inactive: -0.122,inactive: 0.213,inactive: -0.306,inactive: -0.027,–,inactive: 0.137,–,inactive: -0.454,inactive: -0.049,inactive: 0.147,–,inactive: -0.117,inactive: 0.102
WAC isoform 5 (UniProt Q9BTA9),–,–,–,inactive: 0.226,–,–,–,–,–,–,–,inactive: -0.336,–,inactive: 0.254,–,–,–,inactive: -0.129,–,–
VPS72 (UniProt Q15906),–,inactive: 0.005,inactive: -0.099,inactive: 0.001,inactive: 0.031,inactive: 0.059,inactive: -0.023,–,inactive: 0.136,inactive: 0.029,inactive: 0.032,inactive: -0.054,inactive: 0.05,inactive: 0.073,inactive: 0.005,inactive: 0.088,inactive: 0.05,inactive: -0.036,inactive: 0.025,inactive: -0.03
WWOX (UniProt Q9NZC7),–,inactive: -0.057,inactive: 0.133,inactive: 0.016,inactive: -0.246,–,inactive: -0.233,–,inactive: -0.278,–,–,inactive: 0.045,–,inactive: 0.123,inactive: -0.123,–,inactive: 0.212,–,–,–
VLDLR (UniProt P98155),inactive: 0.081,inactive: 0.176,–,–,–,–,inactive: -0.016,inactive: 0.001,–,–,–,–,–,–,inactive: -0.172,–,inactive: -0.314,inactive: -0.014,–,–
WDR76 (UniProt Q9H967),–,inactive: 0.027,–,inactive: 0.137,–,inactive: -0.19,inactive: -0.103,–,–,inactive: 0.003,inactive: 0.071,inactive: 0.099,inactive: 0.003,inactive: -0.145,inactive: -0.098,inactive: 0.008,inactive: 0.013,–,–,–
WARS1 (UniProt G3V5U1),inactive: -0.015,–,–,–,–,inactive: 0.213,–,inactive: -0.028,–,inactive: -0.134,inactive: 0.727,–,inactive: 0.027,–,–,inactive: 0.324,–,–,inactive: -0.05,inactive: 0.037
WDR34 (UniProt Q96EX3),inactive: 0.09,inactive: 0.183,inactive: -0.042,inactive: 0.029,inactive: -0.046,inactive: 0.052,inactive: -0.205,inactive: -0.041,inactive: 0.017,inactive: 0.03,inactive: -0.082,inactive: -0.08,inactive: -0.049,inactive: 0.11,inactive: -0.288,inactive: 0.087,inactive: 0.017,inactive: 0.013,–,–
XBP1 isoform 2 (UniProt P17861),–,–,–,–,–,–,–,–,–,–,–,–,–,–,–,–,–,inactive: -0.061,–,–
VPS50 (UniProt Q96JG6),inactive: 0.003,inactive: -0.054,inactive: 0.043,inactive: -0.034,inactive: -0.104,inactive: -0.003,inactive: -0.044,inactive: -0.057,inactive: -0.041,inactive: -0.011,inactive: -0.005,inactive: -0.07,inactive: 0.02,inactive: 0.004,inactive: 0.01,inactive: -0.032,inactive: 0.038,inactive: 0.036,inactive: -0.022,inactive: 0.033
XP32 (UniProt Q5T750),–,inactive: -0.675,inactive: 0.924,–,inactive: 0.101,–,inactive: 0.207,–,inactive: -0.41,–,–,–,–,–,inactive: 0.763,–,inactive: 0.55,–,–,–
"WDR46, A0A0G2JJL1",inactive: -0.126,–,inactive: -0.133,inactive: -0.023,inactive: -0.08,–,–,inactive: 0.02,inactive: -0.121,inactive: 0.068,inactive: -0.127,inactive: 0.037,inactive: 0.003,inactive: 0.048,–,inactive: 0.112,–,–,inactive: -0.136,inactive: 0.039

# Some of the entries above in another layout.
Target | log2 fold change [1] | log2 fold change [2] | log2 fold change [3] | log2 fold change [4] | log2 fold change [5] | log2 fold change [6] | log2 fold change [7] | log2 fold change [8] | log2 fold change [9] | log2 fold change [10] | log2 fold change [11] | log2 fold change [12] | log2 fold change [13] | log2 fold change [14] | log2 fold change [15] | log2 fold change [16] | log2 fold change [17] | log2 fold change [18] | log2 fold change [19] | log2 fold change [20]
WWOX (UniProt Q9NZC7) | – | inactive: -0.057 | inactive: 0.133 | inactive: 0.016 | inactive: -0.246 | – | inactive: -0.233 | – | inactive: -0.278 | – | – | inactive: 0.045 | – | inactive: 0.123 | inactive: -0.123 | – | inactive: 0.212 | – | – | –
VLDLR (UniProt P98155) | inactive: 0.081 | inactive: 0.176 | – | – | – | – | inactive: -0.016 | inactive: 0.001 | – | – | – | – | – | – | inactive: -0.172 | – | inactive: -0.314 | inactive: -0.014 | – | –
